The other results are listed elsewhere or left out. Shown are side measurements of this screen, not its main read-out; they come without a call. Most of these compounds were active or inconclusive in the main read-out, so they are no random draw. Potencies come from curve fits of mixed quality, noted in brackets.
Assay: qHTS Assay for Lipid Storage Modulators in Drosophila S3 Cells;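 on cell number change: cells counted by Cell Tracker Red CMTPX staining in the red channel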
Details: BODIPY lipid droplet fluorescence, 18-24 h; for cell number change: measured here: cell count max response, cells fed with added oleic acid
How it was run: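 Drosophila S3 cells loaded with oleic acid (400 uM, as added) and compounds at several concentrations; lipid droplets imaged by 488-nm laser-scanning cytometry, 500–530 nm intensity and object ratio to cell channel. Percent activity normalized to 20 uM Triacsin C.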

[1] = measured here: lipid fluorescence (Fed channel) AC50, cells fed with added oleic acid
[2] = measured here: cell number channel AC50, cells fed with added oleic acid

Compound | cell number change [%] | AC50 [1] | AC50 [2]
Cc1cc(C(=O)CSc2n[nH]c(N)n2)c(C)n1-c1cc(F)ccc1F | 4.37 | – | –
CCN(CC(=O)Nc1c(F)cccc1F)C(=O)CCSc1ccc(F)cc1 | -11.5 | – | –
COc1ccc(OC)c(S(=O)(=O)NC2CC(=O)N(c3cccc(F)c3)C2)c1 (configuration not stated) | – | 2.59 µM [rising, single point] | –
CCNc1nc(NC(C)C)nc(Oc2ccc(/C=N/O)cc2)n1 | 15.1 | 6.51 µM [falling, single point] | –
COc1ccc2c(c1)c1nc(SCC(C)C)n(CCO)c(=O)c1n2C | 7.38 | 6.51 µM [rising, single point] | –
O=C(CN(C(=O)c1csnn1)c1ccc(F)c(Cl)c1)NCc1ccccc1 | 7.62 | 0.206 µM [falling, single point] | –
Cc1ccc(C2(C(F)(F)F)NC(=O)N3C(=C2C#N)Nc2ccccc23)cc1 (configuration not stated) | – | 29.1 µM [rising, single point] | 0.00411 µM [rising, full curve, poor fit]
Cc1ccc(NC(=O)CC2SC3=NCCN3C2=O)cc1 (configuration not stated) | -77.8 | 20.6 µM [falling, single point] | 18.4 µM [falling, single point]
COc1ccc(C2(C(=O)c3ccccc3)C(=O)c3ccccc3C2=O)cc1 | -3.31 | – | 0.92 µM [falling, full curve, poor fit]
CC(=O)N/C(=C\c1ccccc1)C(=O)OC/C=C/c1ccccc1 | 23.2 | 29.1 µM [rising, partial curve] | –
O=C1/C(=C\c2c(NCCOCCO)nc3ccccn3c2=O)SC(=S)N1Cc1ccco1 | 42.2 | – | –
Clc1ccc(OCc2nc3ccccc3[nH]2)cc1 | 16.9 | – | –
O=C(Nc1cccc(C(F)(F)F)c1)OCCN1CCN(Cc2ccccc2)CCC1=O | 34.1 | 13 µM [rising, partial curve] | 10.3 µM [rising, partial curve]
COc1cc(C(=O)NCCC(C)C)c([N+](=O)[O-])cc1OC | -16.3 | – | –
CC(C)Cn1c2c(c(O)c(C(=O)Nc3nccs3)c1=O)CCCC2 | -9.19 | 0.13 µM [falling, full curve] | –
CN(C(=O)CC1C(=O)NCCN1Cc1ccc(F)cc1Cl)C1CCCCC1 (configuration not stated) | 13.5 | – | –
CC(=O)c1ccc(S(=O)(=O)N(CCCO)Cc2cc3cc4c(cc3[nH]c2=O)OCCO4)cc1 | 3.95 | – | –
COc1ccc(NC(=O)c2cc3ccccc3o2)cn1 | 5.28 | 29.1 µM [falling, single point] | –
COc1ccc(C(=O)NCC2CCCO2)cc1OC (configuration not stated) | -25.7 | 0.184 µM [falling, full curve, poor fit] | –

— PubChem BioAssay AID2685 (National Center for Advancing Translational Sciences (NCATS), 2010)
